Source: PMC4129401
Results are given in words; binding and its absence hold for the method and conditions named. Binding seen in cells or lysates may run through a third protein. Some binding calls cover weakened binding; strength is not graded here. Where a sequence is shown, tags or fusion partners need not be part of it.

T1: 3×HA-POC1B-p.Arg106Pro (human) (UniProt Q8TC44)
T1 sequence: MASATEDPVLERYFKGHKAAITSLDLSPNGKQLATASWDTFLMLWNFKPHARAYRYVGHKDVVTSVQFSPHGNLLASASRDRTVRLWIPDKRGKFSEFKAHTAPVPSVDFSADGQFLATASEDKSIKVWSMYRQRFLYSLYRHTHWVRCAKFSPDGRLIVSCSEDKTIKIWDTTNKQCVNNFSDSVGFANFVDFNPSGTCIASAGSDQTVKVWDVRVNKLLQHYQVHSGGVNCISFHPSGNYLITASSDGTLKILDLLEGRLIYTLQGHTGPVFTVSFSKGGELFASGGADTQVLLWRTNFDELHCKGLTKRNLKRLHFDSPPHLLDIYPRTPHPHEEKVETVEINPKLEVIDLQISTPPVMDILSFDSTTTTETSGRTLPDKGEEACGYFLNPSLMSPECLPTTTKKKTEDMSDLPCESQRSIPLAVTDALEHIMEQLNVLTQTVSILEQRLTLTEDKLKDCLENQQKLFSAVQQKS

T2: 3×HA-POC1B-p.Gln67del (human) (UniProt Q8TC44)
T2 sequence: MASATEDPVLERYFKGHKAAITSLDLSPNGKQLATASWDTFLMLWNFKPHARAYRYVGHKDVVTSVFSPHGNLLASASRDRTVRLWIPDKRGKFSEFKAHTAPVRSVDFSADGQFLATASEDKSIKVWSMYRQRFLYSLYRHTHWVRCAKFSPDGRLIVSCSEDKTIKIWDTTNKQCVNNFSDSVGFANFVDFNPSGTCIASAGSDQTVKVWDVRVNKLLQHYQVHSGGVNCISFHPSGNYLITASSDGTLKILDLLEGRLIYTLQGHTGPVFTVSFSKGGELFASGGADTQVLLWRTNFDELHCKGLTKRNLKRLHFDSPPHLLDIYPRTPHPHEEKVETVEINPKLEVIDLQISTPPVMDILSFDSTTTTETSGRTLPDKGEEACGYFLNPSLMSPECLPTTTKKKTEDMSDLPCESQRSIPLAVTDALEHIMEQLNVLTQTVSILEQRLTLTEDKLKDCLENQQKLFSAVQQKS

T3: 3×HA-POC1B wild-type (full-length, 478 amino acids) (human) (UniProt Q8TC44)
T3 sequence: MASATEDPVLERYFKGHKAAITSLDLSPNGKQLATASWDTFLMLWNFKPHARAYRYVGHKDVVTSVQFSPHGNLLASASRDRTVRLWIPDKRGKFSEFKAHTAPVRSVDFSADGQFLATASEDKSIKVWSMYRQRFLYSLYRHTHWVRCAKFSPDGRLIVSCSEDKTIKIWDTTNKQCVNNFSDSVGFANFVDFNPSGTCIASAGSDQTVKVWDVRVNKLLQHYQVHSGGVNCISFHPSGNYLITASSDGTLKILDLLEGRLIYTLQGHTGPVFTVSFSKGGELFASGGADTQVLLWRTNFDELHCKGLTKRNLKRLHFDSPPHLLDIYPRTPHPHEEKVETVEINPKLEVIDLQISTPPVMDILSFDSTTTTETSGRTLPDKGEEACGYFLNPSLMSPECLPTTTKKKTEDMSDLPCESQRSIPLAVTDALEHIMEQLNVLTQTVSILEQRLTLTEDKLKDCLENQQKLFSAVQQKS

T4: 3×FLAG-FAM161A (full-length) (human) (UniProt Q3B820)
T4 sequence: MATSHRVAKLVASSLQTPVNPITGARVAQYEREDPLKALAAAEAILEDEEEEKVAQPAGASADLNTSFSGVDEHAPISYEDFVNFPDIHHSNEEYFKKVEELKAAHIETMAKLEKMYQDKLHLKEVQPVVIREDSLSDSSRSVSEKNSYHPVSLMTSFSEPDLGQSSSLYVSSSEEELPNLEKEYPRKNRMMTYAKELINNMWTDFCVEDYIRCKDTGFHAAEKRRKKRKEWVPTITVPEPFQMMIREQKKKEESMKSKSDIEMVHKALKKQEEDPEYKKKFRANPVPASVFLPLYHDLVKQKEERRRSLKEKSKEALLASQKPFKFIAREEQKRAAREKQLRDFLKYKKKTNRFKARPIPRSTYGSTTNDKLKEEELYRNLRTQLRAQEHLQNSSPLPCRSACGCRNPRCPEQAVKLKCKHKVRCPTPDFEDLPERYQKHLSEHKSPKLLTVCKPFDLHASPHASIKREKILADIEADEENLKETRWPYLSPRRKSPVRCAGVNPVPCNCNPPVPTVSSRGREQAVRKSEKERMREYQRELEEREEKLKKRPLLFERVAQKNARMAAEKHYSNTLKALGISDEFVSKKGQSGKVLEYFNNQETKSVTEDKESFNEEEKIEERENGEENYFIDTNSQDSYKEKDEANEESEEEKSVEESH


Assays:
[1] = molecular target: T1, 3×HA-POC1B-p.Arg106Pro (human); assay: co-IP; reciprocal: HEK293T cells, cosynthesis for 48 hr; lysis in 50 mM Tris-HCl pH 7.5, 150 mM NaCl, 0.5% Triton X-100; anti-HA affinity matrix, 5 hr at 4°C; immunoblot with anti-HA or anti-FLAG
[2] = molecular target: T2, 3×HA-POC1B-p.Gln67del (human); assay: as above
[3] = molecular target: T3, 3×HA-POC1B wild-type (full-length, 478 amino acids) (human); assay: as above
[4] = molecular target: T4, 3×FLAG-FAM161A (full-length) (human); assay: co-IP; HEK293T cells, cosynthesis for 48 hr; lysis in 50 mM Tris-HCl pH 7.5, 150 mM NaCl, 0.5% Triton X-100; anti-FLAG M2 agarose, 5 hr at 4°C; immunoblot with anti-HA or anti-FLAG

binding [1]	binding [2]	binding [3]	binding [4]	Binder
binds	binds	binds		3×FLAG-FAM161A (full-length) (protein, UniProt Q3B820 1-660) MATSHRVAKLVASSLQTPVNPITGARVAQYEREDPLKALAAAEAILEDEEEEKVAQPAGASADLNTSFSGVDEHAPISYEDFVNFPDIHHSNEEYFKKVEELKAAHIETMAKLEKMYQDKLHLKEVQPVVIREDSLSDSSRSVSEKNSYHPVSLMTSFSEPDLGQSSSLYVSSSEEELPNLEKEYPRKNRMMTYAKELINNMWTDFCVEDYIRCKDTGFHAAEKRRKKRKEWVPTITVPEPFQMMIREQKKKEESMKSKSDIEMVHKALKKQEEDPEYKKKFRANPVPASVFLPLYHDLVKQKEERRRSLKEKSKEALLASQKPFKFIAREEQKRAAREKQLRDFLKYKKKTNRFKARPIPRSTYGSTTNDKLKEEELYRNLRTQLRAQEHLQNSSPLPCRSACGCRNPRCPEQAVKLKCKHKVRCPTPDFEDLPERYQKHLSEHKSPKLLTVCKPFDLHASPHASIKREKILADIEADEENLKETRWPYLSPRRKSPVRCAGVNPVPCNCNPPVPTVSSRGREQAVRKSEKERMREYQRELEEREEKLKKRPLLFERVAQKNARMAAEKHYSNTLKALGISDEFVSKKGQSGKVLEYFNNQETKSVTEDKESFNEEEKIEERENGEENYFIDTNSQDSYKEKDEANEESEEEKSVEESH
			binds	3×HA-POC1B wild-type (full-length, 478 amino acids) (protein, UniProt Q8TC44-1 1-478) MASATEDPVLERYFKGHKAAITSLDLSPNGKQLATASWDTFLMLWNFKPHARAYRYVGHKDVVTSVQFSPHGNLLASASRDRTVRLWIPDKRGKFSEFKAHTAPVRSVDFSADGQFLATASEDKSIKVWSMYRQRFLYSLYRHTHWVRCAKFSPDGRLIVSCSEDKTIKIWDTTNKQCVNNFSDSVGFANFVDFNPSGTCIASAGSDQTVKVWDVRVNKLLQHYQVHSGGVNCISFHPSGNYLITASSDGTLKILDLLEGRLIYTLQGHTGPVFTVSFSKGGELFASGGADTQVLLWRTNFDELHCKGLTKRNLKRLHFDSPPHLLDIYPRTPHPHEEKVETVEINPKLEVIDLQISTPPVMDILSFDSTTTTETSGRTLPDKGEEACGYFLNPSLMSPECLPTTTKKKTEDMSDLPCESQRSIPLAVTDALEHIMEQLNVLTQTVSILEQRLTLTEDKLKDCLENQQKLFSAVQQKS
			binds	3×HA-POC1B-p.Arg106Pro (protein, UniProt Q8TC44-1 1-478) MASATEDPVLERYFKGHKAAITSLDLSPNGKQLATASWDTFLMLWNFKPHARAYRYVGHKDVVTSVQFSPHGNLLASASRDRTVRLWIPDKRGKFSEFKAHTAPVPSVDFSADGQFLATASEDKSIKVWSMYRQRFLYSLYRHTHWVRCAKFSPDGRLIVSCSEDKTIKIWDTTNKQCVNNFSDSVGFANFVDFNPSGTCIASAGSDQTVKVWDVRVNKLLQHYQVHSGGVNCISFHPSGNYLITASSDGTLKILDLLEGRLIYTLQGHTGPVFTVSFSKGGELFASGGADTQVLLWRTNFDELHCKGLTKRNLKRLHFDSPPHLLDIYPRTPHPHEEKVETVEINPKLEVIDLQISTPPVMDILSFDSTTTTETSGRTLPDKGEEACGYFLNPSLMSPECLPTTTKKKTEDMSDLPCESQRSIPLAVTDALEHIMEQLNVLTQTVSILEQRLTLTEDKLKDCLENQQKLFSAVQQKS
			binds	lebercilin (encoded by LCA5) (protein, UniProt Q86VQ0 1-697) MGERAGSPGTDQERKAGKHHYSYLSDFETPQSSGRSSLVSSSPASVRRKNPKRQTSDGQVHHQAPRKPSPKGLPNRKGVRVGFRSQSLNREPLRKDTDLVTKRILSARLLKINELQNEVSELQVKLAELLKENKSLKRLQYRQEKALNKFEDAENEISQLIFRHNNEITALKERLRKSQEKERATEKRVKDTESELFRTKFSLQKLKEISEARHLPERDDLAKKLVSAELKLDDTERRIKELSKNLELSTNSFQRQLLAERKRAYEAHDENKVLQKEVQRLYHKLKEKERELDIKNIYSNRLPKSSPNKEKELALRKNAACQSDFADLCTKGVQTMEDFKPEEYPLTPETIMCYENKWEEPGHLTLDLQSQKQDRHGEAGILNPIMEREEKFVTDEELHVVKQEVEKLEDEWEREELDKKQKEKASLLEREEKPEWETGRYQLGMYPIQNMDKLQGEEEERLKREMLLAKLNEIDRELQDSRNLKYPVLPLLPDFESKLHSPERSPKTYRFSESSERLFNGHHLQDISFSTPKGEGQNSGNVRSPASPNEFAFGSYVPSFAKTSERSNPFSQKSSFLDFQRNSMEKLSKDGVDLITRKEKKANLMEQLFGASGSSTISSKSSDPNSVASSKGDIDPLNFLPGNKGSRDQEHDEDEGFFLSEGRSFNPNRHRLKHADDKPAVKAADSVEDEIEEVALR
			binds	3×HA-POC1B-p.Gln67del (protein, UniProt Q8TC44-1 1-478) MASATEDPVLERYFKGHKAAITSLDLSPNGKQLATASWDTFLMLWNFKPHARAYRYVGHKDVVTSVFSPHGNLLASASRDRTVRLWIPDKRGKFSEFKAHTAPVRSVDFSADGQFLATASEDKSIKVWSMYRQRFLYSLYRHTHWVRCAKFSPDGRLIVSCSEDKTIKIWDTTNKQCVNNFSDSVGFANFVDFNPSGTCIASAGSDQTVKVWDVRVNKLLQHYQVHSGGVNCISFHPSGNYLITASSDGTLKILDLLEGRLIYTLQGHTGPVFTVSFSKGGELFASGGADTQVLLWRTNFDELHCKGLTKRNLKRLHFDSPPHLLDIYPRTPHPHEEKVETVEINPKLEVIDLQISTPPVMDILSFDSTTTTETSGRTLPDKGEEACGYFLNPSLMSPECLPTTTKKKTEDMSDLPCESQRSIPLAVTDALEHIMEQLNVLTQTVSILEQRLTLTEDKLKDCLENQQKLFSAVQQKS
